No constants are given. Whether binding was seen depends on the method and setting. In cells and extracts the contact can be indirect. A result given as binding can be weak or reduced; the word gives no strength.

The chains behind the UniProt entries cited, without tags or fusion partners. Where a name states a change or a piece, a line headed by the entry shows the natural chain unless it says otherwise. A line that says so, or that is headed by a name, gives the form on record, which may keep a tag or linker.
Non-glycosylated human sonic hedgehog mutant N278A with HA tag (N278A-HA) (Q15465, form named): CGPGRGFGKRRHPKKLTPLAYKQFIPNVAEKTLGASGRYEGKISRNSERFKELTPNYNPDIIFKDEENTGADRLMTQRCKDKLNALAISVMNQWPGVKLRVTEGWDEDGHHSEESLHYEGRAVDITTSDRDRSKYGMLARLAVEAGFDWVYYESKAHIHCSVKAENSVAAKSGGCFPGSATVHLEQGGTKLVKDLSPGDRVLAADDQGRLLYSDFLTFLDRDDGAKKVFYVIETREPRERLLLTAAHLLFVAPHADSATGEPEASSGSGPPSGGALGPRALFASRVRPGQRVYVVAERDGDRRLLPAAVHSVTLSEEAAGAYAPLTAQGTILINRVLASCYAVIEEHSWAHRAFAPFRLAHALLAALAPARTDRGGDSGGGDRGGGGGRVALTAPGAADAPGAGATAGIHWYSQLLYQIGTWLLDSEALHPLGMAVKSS

Drawing on PMC4049591, this text covers binding for one substance.

The target in the assay is Non-glycosylated human sonic hedgehog mutant N278A with HA tag (N278A-HA) (human) (UniProt Q15465). Put plainly: co-IP; cells co-transfected with SHH-HA or N278A-HA and vector, wild type OS-9.2 or R188A-OS-9; lysed in buffer with 1% Triton; immunoprecipitated with HA antibodies; blotted with OS-9 antibodies.

“OS-9 R188A mutant (MRH domain mutant unable to bind trimmed glycans) (from UniProt Q13438-2)”: the binding result is listed as “binds”.
